PubChem BioAssay AID504804 – Drosophila RNAi Screening Center | 2011
Test: 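Fly genes whose loss lessens doxorubicin-driven cell death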 (primary screen). System: Drosophila Kc cells. Knock-down reagent: long dsRNA against Drosophila genes, 0.5 µg dsRNA per well. Timing: 96 h (48 h knock-down, then 48 h drug). Treatment: doxorubicin 5 µg/ml for 48 h, added 48 h after dsRNA. Detection: 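Luminescent ATP counts per replicate, not normalised, reflecting viable cells after 48 h dsRNA knock-down followed by 48 h of 5 µg/ml doxorubicin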. Scale: raw ATP luminescence: higher = more viable cells, protection from doxorubicin. Hit rule: 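Active when both duplicate wells lie at least 2 SD above the plate mean and protection is confirmed by rescreening and independent dsRNAs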.
In all, the deposit lists about 19,000 reagents; shown is a random part of those that have a named target and a result. In the full data, 47 (0.25%) were called active. 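Signals are raw, not normalised; exact z-scores behind calls not deposited; actives needed confirmation, so some wells reaching 2 SD are inactive.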 A number with no mark means an inactive call. A plus sign joins genes that one reagent is predicted to hit. Reagent sequences are not shown.

| gene knocked down | DRSC id | raw ATP luminescence, replicate 1 | raw ATP luminescence, replicate 2 |
| --- | --- | --- | --- |
| CG8833 | DRSC11050 | 28080 | 22973 |
| myd | DRSC14762 | 37503 | 32633 |
| myd | DRSC15512 | 62960 | 63600 |
| CG11353 | DRSC08182 | 34787 | 32290 |
| Spn | DRSC07986 | 1.70e5 | 1.14e5 |
| Spn | DRSC08490 | 62027 | 68657 |
| NimC1 | DRSC01879 | 69693 | 66367 |
| CG33111 | DRSC14208 | 71730 | 59880 |
| CG33111 | DRSC14444 | 71980 | 71560 |
| CG33309 | DRSC01421 | 2.78e5 | 2.53e5 |
| Mkrn1 | DRSC11870 | 63280 | 67477 |
| CG34129 | DRSC15960 | 71520 | 65160 |
| sut2 | DRSC07701 | 67283 | 57493 |
| TwdlR | DRSC14736 | 38130 | 56830 |
| CG6294 + CG6299 | DRSC19980 | 3.37e5 | 3.17e5 |
| CG11686 | DRSC14350 | 71800 | 67770 |
| PPO3 | DRSC04325 | 77207 | 58847 |
| CG1492 | DRSC19605 | 3.31e5 | 3.13e5 |
| ZC3H3 | DRSC10696 | 65880 | 66150 |
| Xbp1 | DRSC04553 | 2.06e5 | 2.23e5 |
| Trf4-1 | DRSC17775 | 44010 | 41010 |
| CG3347 | DRSC00597 | 36773 | 33213 |
| jumu | DRSC16651 | 52340 | 54293 |
| CAH5 | DRSC15372 | 59700 | 55480 |
| KrT95D | DRSC16725 | 35427 | 47557 |
| CG31287 | DRSC13138 | 1.67e5 | 1.56e5 |
| ph-p | DRSC18820 | 49840 | 45260 |
| CG3626 | DRSC18318 | 45650 | 46790 |
| yellow-e | DRSC12966 | 1.84e5 | 2.14e5 |
| yellow-e | DRSC16563 | 83900 | 88200 |
| Aplip1 | DRSC07947 | 1.13e5 | 97093 |
| t-Grip91 | DRSC01506 | 3.33e5 | 2.61e5 |
| CG6380 | DRSC02950 | 66750 | 80193 |
| ND-B16.6 | DRSC18306 | 30510 | 33660 |
| CG4995 | DRSC02801 | 77383 | 62203 |
| Start1 | DRSC04384 | 83647 | 64660 |
| Spn88Eb | DRSC16093 | 85890 | 17350 |
| Eogt | DRSC00727 | 86787 | 61087 |
| CG18622 | DRSC15360 | 78800 | 68030 |
| His3.3A | DRSC03343 | 23230 | 26817 |
| CG11127 | DRSC06043 | 68737 | 33653 |
| Oatp58Dc | DRSC04363 | 84743 | 85950 |
| Smg6 | DRSC16029 | 46780 | 37080 |
| Ppox | DRSC17033 | 48840 | 58620 |
| sw | DRSC20388 | 2.21e5 | 2.17e5 |
| CG7173 | DRSC11812 | 14933 | 15763 |
| CG14316 | DRSC14795 | 51610 | 68210 |
| pnut | DRSC07666 | 63990 | 51963 |
| CG15322 | DRSC20680 | 2.09e5 | 1.88e5 |
| Atg9 | DRSC06848 | 61763 | 68693 |
| Aldh-III | DRSC06047 | 57320 | 42177 |
| tbrd-1 | DRSC14601 | 71970 | 60560 |
| CG13784 | DRSC00974 | 2.48e5 | 2.36e5 |
| CG13784 | DRSC02287 | 1.02e5 | 55773 |
| CG5026 | DRSC10470 | 41493 | 41607 |
| CG14258 | DRSC14753 | 75600 | 52570 |
| CG3589 | DRSC04392 | 80443 | 45960 |
| Act42A | DRSC04835 | 52633 | 46280 |
| fray | DRSC16950 | 58440 | 54450 |
| lncRNA:CR42862 + CG33229 | DRSC08497 | 69993 | 53773 |
| CG14071 | DRSC02374 | 50047 | 86073 |
| CG42323 | DRSC19629 | 4.08e5 | 3.15e5 |
| CG42264 | DRSC18074 | 45650 | 58050 |
| CG42264 | DRSC18075 | 50950 | 55060 |
| CG6497 | DRSC10654 | 37940 | 30397 |
| sav | DRSC14681 | 89990 | 79530 |
| sav | DRSC14682 | 71650 | 68730 |
| c12.1 | DRSC18750 | 3.50e5 | 2.84e5 |
| ft | DRSC00819 | 1.19e5 | 85667 |
| CG14655 | DRSC12241 | 1.71e5 | 2.17e5 |
| CG9752 | DRSC04562 | 51127 | 63283 |
| Prosbeta2R1 | DRSC18154 | 32380 | 45620 |
| unc-13-4A | DRSC10201 | 66590 | 72137 |
| unc-13-4A | DRSC10202 | 77520 | 95440 |
| unc-13-4A | DRSC10203 | 42677 | 47127 |
| unc-13-4A | DRSC11013 | 73420 | 72680 |
| CAH16 | DRSC15371 | 62470 | 62480 |
| CG15336 | DRSC18019 | 34320 | 48630 |
| chas | DRSC19508 | 3.37e5 | 3.18e5 |
| chas | DRSC19509 | 3.02e5 | 2.60e5 |
| CG15576 | DRSC18064 | 34800 | 46020 |
| prom | DRSC04684 | 49827 | 44200 |
| GlcAT-I | DRSC17307 | 2.05e5 | 2.11e5 |
| CHKov1 | DRSC01566 | 2.39e5 | 2.04e5 |
| CHKov1 | DRSC01696 | 2.42e5 | 2.20e5 |
| CHKov1 | DRSC14258 | 58440 | 65090 |
| CHKov1 | DRSC20937 | 2.01e5 | 2.13e5 |
